The record followed here is paper PMC6542539.

Test [1] has as its target T1, catalytic domain of HisRS fused to GFP (CD-GFP) (S. cerevisiae) (UniProt P07263).
T1 sequence: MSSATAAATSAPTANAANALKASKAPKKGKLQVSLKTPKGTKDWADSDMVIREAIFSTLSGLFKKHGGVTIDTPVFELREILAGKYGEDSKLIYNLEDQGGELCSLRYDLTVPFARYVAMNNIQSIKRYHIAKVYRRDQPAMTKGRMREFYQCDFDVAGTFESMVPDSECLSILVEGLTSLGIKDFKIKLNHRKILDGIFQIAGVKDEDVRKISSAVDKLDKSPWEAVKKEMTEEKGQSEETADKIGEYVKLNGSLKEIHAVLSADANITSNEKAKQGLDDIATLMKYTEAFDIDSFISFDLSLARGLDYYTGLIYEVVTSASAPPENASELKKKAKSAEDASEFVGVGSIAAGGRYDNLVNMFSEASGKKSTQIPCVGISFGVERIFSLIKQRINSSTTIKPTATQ
The test can be described thus: co-IP; CD-GFP or ABD-GFP plasmid in yeast cells with endogenously TAP-tagged HisRS; precipitated with GFP-Trap (anti-GFP) beads; western with anti-TAP antibodies, anti-GFP as control of IP efficiency.

The target of test [2] is T2, anticodon-binding domain of HisRS fused to GFP (ABD-GFP) (S. cerevisiae) (UniProt P07263).
T2 sequence: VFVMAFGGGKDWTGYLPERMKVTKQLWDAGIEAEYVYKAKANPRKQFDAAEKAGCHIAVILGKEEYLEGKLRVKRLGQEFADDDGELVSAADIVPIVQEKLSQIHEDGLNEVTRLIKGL
Described as above.

These are yes or no findings as the source states them, for the method shown. Binding seen in cells or lysates may run through a third protein. Some results given as binding are weak or reduced against the parent protein; the word gives no strength. Sequences can lack the tags named with a protein.

B1: histidyl-tRNA synthetase (HisRS), endogenously TAP-tagged (enzyme, UniProt P07263 21-546)
chain: MSSATAAATSAPTANAANALKASKAPKKGKLQVSLKTPKGTKDWADSDMVIREAIFSTLSGLFKKHGGVTIDTPVFELREILAGKYGEDSKLIYNLEDQGGELCSLRYDLTVPFARYVAMNNIQSIKRYHIAKVYRRDQPAMTKGRMREFYQCDFDVAGTFESMVPDSECLSILVEGLTSLGIKDFKIKLNHRKILDGIFQIAGVKDEDVRKISSAVDKLDKSPWEAVKKEMTEEKGQSEETADKIGEYVKLNGSLKEIHAVLSADANITSNEKAKQGLDDIATLMKYTEAFDIDSFISFDLSLARGLDYYTGLIYEVVTSASAPPENASELKKKAKSAEDASEFVGVGSIAAGGRYDNLVNMFSEASGKKSTQIPCVGISFGVERIFSLIKQRINSSTTIKPTATQVFVMAFGGGKDWTGYLPERMKVTKQLWDAGIEAEYVYKAKANPRKQFDAAEKAGCHIAVILGKEEYLEGKLRVKRLGQEFADDDGELVSAADIVPIVQEKLSQIHEDGLNEVTRLIKGL
Take B1: the binding entry is listed as “binds” in test [1] and “no binding” in test [2].
